Assay [1] has as its target T1, HSET-GFP (human) (UniProt Q9BW19).
T1 sequence: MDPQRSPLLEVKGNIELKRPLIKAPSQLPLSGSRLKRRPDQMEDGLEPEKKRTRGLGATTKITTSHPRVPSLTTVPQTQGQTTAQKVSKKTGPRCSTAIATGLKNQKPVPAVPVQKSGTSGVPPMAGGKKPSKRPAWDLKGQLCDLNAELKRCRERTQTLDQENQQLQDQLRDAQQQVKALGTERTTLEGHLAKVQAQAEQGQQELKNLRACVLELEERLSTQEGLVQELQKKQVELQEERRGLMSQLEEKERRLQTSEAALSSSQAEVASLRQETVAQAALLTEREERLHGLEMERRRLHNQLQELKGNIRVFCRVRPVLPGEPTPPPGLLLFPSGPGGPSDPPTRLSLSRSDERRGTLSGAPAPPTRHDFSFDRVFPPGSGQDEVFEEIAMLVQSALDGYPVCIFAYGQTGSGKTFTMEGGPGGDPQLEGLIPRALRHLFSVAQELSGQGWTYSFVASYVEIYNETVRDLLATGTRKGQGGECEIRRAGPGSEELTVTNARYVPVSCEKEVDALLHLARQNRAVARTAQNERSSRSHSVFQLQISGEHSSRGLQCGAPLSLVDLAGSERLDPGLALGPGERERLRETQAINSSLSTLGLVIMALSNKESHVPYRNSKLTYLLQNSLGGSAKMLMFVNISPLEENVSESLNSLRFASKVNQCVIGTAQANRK
Nature of the assay: co-IP; anti-HSET antibody (4 ul) on whole cell lysates (500 ug protein) of MDA-MB-231 cells transiently transfected with control vector, HSET-pEGFP plasmid or HSET siRNA; overnight 4°C, protein A-agarose beads; blot for survivin; beads-only control.

Protein sequences, listed by entry. Tags and fused reporters are not part of them.
UniProt O15392: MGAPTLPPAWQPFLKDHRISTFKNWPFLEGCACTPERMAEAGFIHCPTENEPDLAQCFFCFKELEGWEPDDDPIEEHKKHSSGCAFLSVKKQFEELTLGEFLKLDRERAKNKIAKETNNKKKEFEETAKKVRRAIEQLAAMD

Assay [2] deals with T2, HSET/KifC1 (human (endogenous in MDA-MB-231)) (UniProt Q9BW19).
T2 sequence: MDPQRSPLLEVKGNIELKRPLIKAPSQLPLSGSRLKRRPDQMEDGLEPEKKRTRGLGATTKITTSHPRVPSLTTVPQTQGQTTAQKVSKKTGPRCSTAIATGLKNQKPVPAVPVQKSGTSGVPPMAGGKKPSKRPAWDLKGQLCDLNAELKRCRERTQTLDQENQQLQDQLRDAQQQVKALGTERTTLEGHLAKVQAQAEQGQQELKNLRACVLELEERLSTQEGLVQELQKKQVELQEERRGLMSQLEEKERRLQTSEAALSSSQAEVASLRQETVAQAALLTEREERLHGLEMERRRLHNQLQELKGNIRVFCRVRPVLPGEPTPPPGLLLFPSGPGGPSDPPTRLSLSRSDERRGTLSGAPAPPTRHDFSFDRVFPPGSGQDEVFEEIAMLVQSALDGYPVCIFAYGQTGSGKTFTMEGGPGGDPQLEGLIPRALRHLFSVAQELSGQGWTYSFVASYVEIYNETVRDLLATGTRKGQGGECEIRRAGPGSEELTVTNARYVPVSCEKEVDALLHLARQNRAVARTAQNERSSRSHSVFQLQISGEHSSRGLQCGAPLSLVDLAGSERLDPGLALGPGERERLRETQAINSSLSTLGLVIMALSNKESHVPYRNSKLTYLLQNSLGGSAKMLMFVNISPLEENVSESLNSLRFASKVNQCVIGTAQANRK
The description is as above.

Assay [3] has as its target survivin (human (endogenous in MDA-MB-231)) (UniProt O15392). Nature of the assay: co-IP; anti-survivin antibody (4 ul) on MDA-MB-231 cell lysates (500 ug protein); overnight 4°C, protein A-agarose beads; blot with HSET antibody.

No constants are given. Whether binding was seen depends on the method and setting. In cells and extracts the contact can be indirect. Some results given as binding are weak or reduced against the parent protein; the word gives no strength. For part of these data: Sequences can lack the tags named with a protein.

Regarding survivin (from UniProt O15392 1-142), the binding entry in assay [1] and in assay [2] was “binds” each time.

B1: HSET/KifC1 (protein, UniProt Q9BW19 1-673)
chain: MDPQRSPLLEVKGNIELKRPLIKAPSQLPLSGSRLKRRPDQMEDGLEPEKKRTRGLGATTKITTSHPRVPSLTTVPQTQGQTTAQKVSKKTGPRCSTAIATGLKNQKPVPAVPVQKSGTSGVPPMAGGKKPSKRPAWDLKGQLCDLNAELKRCRERTQTLDQENQQLQDQLRDAQQQVKALGTERTTLEGHLAKVQAQAEQGQQELKNLRACVLELEERLSTQEGLVQELQKKQVELQEERRGLMSQLEEKERRLQTSEAALSSSQAEVASLRQETVAQAALLTEREERLHGLEMERRRLHNQLQELKGNIRVFCRVRPVLPGEPTPPPGLLLFPSGPGGPSDPPTRLSLSRSDERRGTLSGAPAPPTRHDFSFDRVFPPGSGQDEVFEEIAMLVQSALDGYPVCIFAYGQTGSGKTFTMEGGPGGDPQLEGLIPRALRHLFSVAQELSGQGWTYSFVASYVEIYNETVRDLLATGTRKGQGGECEIRRAGPGSEELTVTNARYVPVSCEKEVDALLHLARQNRAVARTAQNERSSRSHSVFQLQISGEHSSRGLQCGAPLSLVDLAGSERLDPGLALGPGERERLRETQAINSSLSTLGLVIMALSNKESHVPYRNSKLTYLLQNSLGGSAKMLMFVNISPLEENVSESLNSLRFASKVNQCVIGTAQANRK
For the molecule B1, the binding entry in assay [3] is given as “binds”.

For the origin of these results see publication PMC4467423.
